Source: PubChem BioAssay AID1671190 (National Center for Advancing Translational Sciences (NCATS), 2021)
“And” between values parts separate entries of the source, which are not always exact repeats. Equal values may be shown once. About 6,100 (1.1%) of roughly 580,000 compounds were called active. This list was built around the results that the source calls inconclusive (neither active nor inactive); the mix of calls is not that of the screen. Calls come from the whole dose curve; as a rule, active = well fitted inhibition curve with a large enough effect; inconclusive = small, poorly fitted or top-dose-only effect, or another doubt; inactive = no such curve, though single readings can be large or run the other way. Where the call is inconclusive, the potency comes from a doubtful curve fit.

Chains of the proteins cited; added tags and fusions are not shown.
UniProt P18054, whole entry, looked up: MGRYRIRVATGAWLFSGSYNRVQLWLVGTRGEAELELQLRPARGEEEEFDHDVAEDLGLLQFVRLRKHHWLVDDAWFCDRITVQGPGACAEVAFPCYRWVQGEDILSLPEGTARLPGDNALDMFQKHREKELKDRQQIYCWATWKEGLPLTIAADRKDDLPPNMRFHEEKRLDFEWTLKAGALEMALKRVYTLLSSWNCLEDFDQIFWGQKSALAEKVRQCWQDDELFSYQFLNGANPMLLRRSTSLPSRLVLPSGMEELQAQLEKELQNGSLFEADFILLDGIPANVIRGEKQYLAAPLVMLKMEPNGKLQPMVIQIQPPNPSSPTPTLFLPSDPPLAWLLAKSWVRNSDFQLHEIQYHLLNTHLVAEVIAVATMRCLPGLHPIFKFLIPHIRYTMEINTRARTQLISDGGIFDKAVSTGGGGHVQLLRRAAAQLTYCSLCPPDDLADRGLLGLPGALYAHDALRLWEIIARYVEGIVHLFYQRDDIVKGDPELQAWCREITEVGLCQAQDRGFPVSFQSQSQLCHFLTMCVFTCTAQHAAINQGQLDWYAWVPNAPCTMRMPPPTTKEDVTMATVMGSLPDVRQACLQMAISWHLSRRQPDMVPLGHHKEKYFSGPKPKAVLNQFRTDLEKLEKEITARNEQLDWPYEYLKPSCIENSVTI

Each compound was assayed against Polyunsaturated fatty acid lipoxygenase ALOX12 (Homo sapiens) (UniProt P18054) (assay: Primary qHTS assay for inhibitors of human arachidonate 12S-lipoxygenase (ALOX12): Round 2). Conditions: purified 12hLO, xylenol orange hydroperoxide absorbance; activity change, negative = inhibition: at 108 µM (top of the series) unless noted.
In short: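 Purified human 12hLO (150 nM final) in 25 mM Hepes, 0.01% Triton X-100, pH 7.0 was preincubated 15 min at room temperature with compound. Then 40 uM arachidonic acid was added, 30 min. Hydroperoxide was read by Fe-XO absorbance ratio 573/405 nm.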
% is set by controls: 0 for no effect and ±100 for the full control effect; potency is the fitted concentration of half-maximal effect.

Row | SMILES | activity change, negative = inhibition | Potency
1 | O=C(O)Cn1c2ccccc2c2n[nH]c(=S)nc21 | inactive: -8.49% | –
2 | COC(=O)NC1CCC(NC(=O)OC)CC1 (stereo not given) | inactive: 6.92% | –
3 | C#CCNC(=O)C(C)c1ncc(C(F)(F)F)cc1Cl (stereo not given) | inactive: -13.9% | –
4 | Cc1nc2c(c(-c3ccc(O)cc3)n1)CN(Cc1cccc3ccccc13)CC2 | – | inconclusive: 44.7 µM [inhibitor, partial curve]
5 | CS(=O)(=O)c1ccc(CC(=O)N[C@H]2CCOC[C@H]2C2CCOCC2)cc1 | – | inconclusive: 3.55 µM [inhibitor, full curve, poor fit]
6 | COc1ccc(-c2nc(C)c(CCNC(=O)C(=O)Nc3ccc(C)c(F)c3)s2)cc1OC | – | inconclusive: 44.7 µM [inhibitor, partial curve, poor fit]
7 | S=c1[nH]nc(Cc2ccccc2)n1-c1ccccc1 | – | inconclusive: 44.7 µM [inhibitor, partial curve, poor fit]
8 | COc1cccc(N2C(=O)NC(=NC3CCCCC3)C23CCCN(Cc2ccc(F)cc2)C3)c1 (stereo not given) | – | inconclusive: 89.1 µM [inhibitor, single point]
9 | Cc1cccc(C)c1NC(=O)CN1CCN(c2ccc(C(F)(F)F)cn2)CC1 | inactive: 6.32% | –
10 | O=C(Nc1nc(-c2ccco2)c(-c2ccco2)s1)c1ccc(F)cc1F | – | inconclusive: 44.7 µM [inhibitor, partial curve, poor fit]
11 | CC1Oc2ccc(NC(=O)Cc3ccc(F)cc3)cc2CN(CC2CC2)C1=O (stereo not given) | – | inconclusive: 20 µM [inhibitor, full curve]
12 | CC(OC(=O)c1ccc2ncsc2c1)C(=O)N(C)C1CCCCC1 (stereo not given) | – | inconclusive: 126 µM [inhibitor, single point]
13 | COc1cc(C(Nc2ccc3c(c2)OCO3)C(=O)NC2CCCCC2)cc(OC)c1OC (stereo not given) | – | inconclusive: 25.1 µM [inhibitor, partial curve, poor fit]
14 | Cc1ccc(S(=O)(=O)CCC(=O)N(CCCN2CCOCC2)c2nc3ccccc3s2)cc1 | inactive: -17.3% | –
15 | Cc1cccc(NC(=O)N2CCCCCC2)c1C | inactive: 7.92% | –
16 | O=c1[nH]c(CSc2nnc(-c3ccccc3)n2-c2ccccc2)nc2ccccc12 | inactive: -2.67% | –
17 | O=C(CS(=O)(=O)c1ccccc1)Nc1nccs1 | – | inconclusive: 7.94 µM [inhibitor, full curve]
18 | CC(NC(=O)CCn1c(=O)c2cccn2c2ccc(F)cc21)c1ccccc1 (stereo not given) | – | inconclusive: 126 µM [inhibitor, partial curve, poor fit]
19 | CCCCOc1ccc(-c2cc(C(=O)NNC(=S)NCC)c3ccccc3n2)cc1 | – | inconclusive: 31.6 µM [inhibitor, partial curve, poor fit]
20 | CC(C)c1nnsc1CN1CCn2nc(CCC(=O)N3CCCC3)cc2C1 | – | inconclusive: 12.6 µM [inhibitor, full curve, poor fit]
21 | COc1cc(OC)c(Cl)cc1N | inactive: -13.4% | –
22 | COc1ccccc1-c1[nH]nc2ncc(C(=O)NCC3CCOCC3)nc12 | inactive: 25.2% [at 176 µM] | –
23 | Cc1ccc(C(=O)N2CCC3(CCCN(C4CCOCC4)C3=O)C2)cc1F (stereo not given) | inactive: 32.2% | –

An excerpt from the list above, as a working copy:
Row | SMILES | activity change, negative = inhibition | Potency
18 | CC(NC(=O)CCn1c(=O)c2cccn2c2ccc(F)cc21)c1ccccc1 (stereo not given) | – | inconclusive: 126 µM [inhibitor, partial curve, poor fit]
19 | CCCCOc1ccc(-c2cc(C(=O)NNC(=S)NCC)c3ccccc3n2)cc1 | – | inconclusive: 31.6 µM [inhibitor, partial curve, poor fit]

Further compounds follow:

Row | SMILES | activity change, negative = inhibition | Potency
24 | Cc1cc(C)nc(-n2nc(C)c3c(C(F)F)cc(C)nc32)n1 | – | inconclusive: 1.41 µM [inhibitor, full curve, poor fit]
25 | O=C(O)COc1ccccc1/C=N/NC(=O)COc1ccc(-c2ccccc2)cc1 | inactive: -33.8% | –
26 | O=C(CSc1nnc(CNC(=O)c2ccco2)o1)c1ccccc1 | – | inconclusive: 50.1 µM [inhibitor, partial curve, poor fit]
27 | CNC(=O)CN1C(=O)NC(c2ccccc2)(c2ccccc2)C1=O | – | inconclusive: 112 µM [inhibitor, single point]
28 | CCOC(=O)C1C(=O)C=C(c2ccco2)CC1c1ccccc1 (stereo not given) | – | active: 11.2 µM
29 | Cc1ccc(S(=O)C(c2ccccc2)c2ccccc2)cc1 (stereo not given) | – | active: 22.4 µM
30 | CCCN1Cc2ccccc2NC(=O)C12CCNC2 (stereo not given) | – | inconclusive: 4.46 µM [inhibitor, single point]
31 | COc1ccc(CCNC(=O)c2cc(-c3ccc(Cl)cc3)on2)cc1OC | inactive: -21.5% | –
32 | COc1cc2c(cc1OC)CN(C(=S)Nc1ccccc1)CC2 | inactive: -2.71% | –
33 | Cn1c(=O)cc(SCC(=O)Nc2cccc(C#N)c2)c2ccc(Cl)cc21 | – | inconclusive: 126 µM [inhibitor, partial curve, poor fit]
34 | O=C(c1ccccc1)N1CCN(Cc2cccc(Oc3ccccc3)c2)CC1 | inactive: -23.2% | –
35 | CCCCCNC(=O)N1CCC(CN(Cc2ccc(Cl)cc2)Cc2ccc([N+](=O)[O-])s2)C1 (stereo not given) | – | inconclusive: 1.93 µM [inhibitor, full curve]
36 | COc1ccc(C(C#N)=C2C=CC(=NO)C=C2)cc1 | – | inconclusive: 20 µM [inhibitor, partial curve, poor fit]
37 | O=C1Cc2cc(S(=O)(=O)Nc3cccc(F)c3)ccc2N1 | – | inconclusive: 100 µM [inhibitor, single point]
38 | CC1CCCN(CCOc2ccc3ccccc3c2Br)C1 (stereo not given) | – | inconclusive: 56.2 µM [inhibitor, partial curve, poor fit]
39 | COc1cc2c(C(=O)N3CCN(c4ccc(C)cc4)C(C)C3)cn(CC(C)C)c(=O)c2cc1OC (stereo not given) | – | inconclusive: 126 µM [inhibitor, partial curve, poor fit]
40 | C[n+]1c2cc(N)ccc2cc2ccc(N)cc21 | – | inconclusive: 39.8 µM [inhibitor, partial curve] and inconclusive: 12.6 µM [inhibitor, full curve, poor fit]
41 | COc1ccc(OC)c(S(=O)(=O)N2CCN(C(=O)NC3CCCC3)CC2)c1 | inactive: 19.7% | –
42 | O=C(NCc1ccccc1Cl)c1csc2c1CCCCC2 | – | inconclusive: 31.6 µM [inhibitor, partial curve, poor fit]
43 | COc1ccccc1C(=O)NC(=S)Nc1ccc(NC(=O)c2cccs2)cc1 | – | inconclusive: 20 µM [inhibitor, full curve, poor fit]
44 | O=[N+]([O-])c1ccc(N2CCCC2)nc1N1CCCC1 | – | inconclusive: 126 µM [inhibitor, single point]
45 | COc1ccc(C(=O)n2nc(-c3ccco3)nc2N)cc1 | – | inconclusive: 35.5 µM [inhibitor, single point]
